# Reference: the supplement of paper PMC4604168 (melanoma cell lines)
# The list shows a part of the results. Many values rest on one well or one pass, so single values are uncertain.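 The apoptosis fraction was the count of cleaved-PARP antibody-stained nuclei relative to all DNA-stained nuclei, imaged in 1,536-well plates. Screening doses were set so most cells survived, and baseline and induced cleaved-PARP levels vary greatly across cell lines.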
# System: LOXIMVI
# Assay: cleaved PARP positive nuclei fraction relative to DMSO control; melanoma cells; higher = more apoptosis
# Conditions: library dose: low library concentration; 72 h
row,SMILES,cleaved PARP positive nuclei fraction [%]
1,"C=CCn1c(=O)c2cnc(Nc3ccc(N4CCN(C)CC4)cc3)nc2n1-c1cccc(C(C)(C)O)n1 + O=S(=O)(c1ccccc1)N(CC(F)(F)F)c1ccc(C(O)(C(F)(F)F)C(F)(F)F)cc1 [T0901317] (first compound 0.02 µM, partner dose 1.4 µM)",167
2,"O=C(Nc1cccc(Cl)c1)Nc1ncc(CCNc2ncnc3ccsc23)s1 + COc1cc(N2CCC(N3CCN(C)CC3)CC2)ccc1Nc1ncc(Cl)c(Nc2ccccc2S(=O)(=O)C(C)C)n1 [NVP-TAE684] (first compound 0.0008 µM, partner dose 0.08 µM)",65.4
3,"C[C@]1(c2nc3c(C(N)=O)cccc3[nH]2)CCCN1 [Veliparib] + COc1cc2ncnc(Nc3ccc(Oc4ccccc4)cc3)c2cc1OC [SrcI1] (first compound 1.4 µM, partner dose 2 µM)",4090
4,"Cn1c(Nc2ccc(C(F)(F)F)cc2)nc2cc(Oc3ccnc(-c4ncc(C(F)(F)F)[nH]4)c3)ccc21 + COc1ccc(COc2ccc(Cc3cnc(N)nc3N)cc2OC)cc1 [GW2580] (first compound 0.08 µM, partner dose 1 µM)",45.5
5,"COCC[n+]1c2c(n(Cc3cnccn3)c1C)C(=O)c1ccccc1C2=O + COc1ccc(COc2ccc(Cc3cnc(N)nc3N)cc2OC)cc1 [GW2580] (first compound 0.0004 µM, partner dose 1 µM)",74.9
6,"Cc1ccc(NC(=O)c2cccc(N(C)C)c2)cc1NC(=O)c1ccc(O)cc1 + COC(=O)c1sccc1S(=O)(=O)Nc1ccc(Nc2ccccc2)cc1OC [GSK0660] (first compound 2 µM, partner dose 1 µM)",114
7,"COCC[n+]1c2c(n(Cc3cnccn3)c1C)C(=O)c1ccccc1C2=O + CC(C)CCN1c2nc(Nc3cc(F)c(O)c(F)c3)ncc2N(C)C(=O)C1C [BID1870] (first compound 0.0004 µM, partner dose 0.2 µM)",73.2
8,"CC(C)(C)c1cnc(CSc2cnc(NC(=O)C3CCNCC3)s2)o1 + Cc1cc([N+](=O)[O-])ccc1NS(=O)(=O)c1cc(Cl)ccc1Cl [FH535] (first compound 0.01 µM, partner dose 1 µM)",89.3
9,"Cc1ccc(NC(=O)c2cccc(N(C)C)c2)cc1NC(=O)c1ccc(O)cc1 + CCCCCCCCCCCC1=C(O)C(=O)C=C(O)C1=O [Embelin] (first compound 2 µM, partner dose 1.2 µM)",105
10,"Cc1ccc(NC(=O)c2cccc(N(C)C)c2)cc1NC(=O)c1ccc(O)cc1 + COc1cc(N2CCC(N3CCN(C)CC3)CC2)ccc1Nc1ncc(Cl)c(Nc2ccccc2S(=O)(=O)C(C)C)n1 [NVP-TAE684] (first compound 2 µM, partner dose 0.08 µM)",1590
11,"Cn1cncc1[C@@](N)(c1ccc(Cl)cc1)c1ccc2c(c1)c(-c1cccc(Cl)c1)cc(=O)n2C [tipifarnib] + CCc1ccc(CCOc2ccc(CC3SC(=O)NC3=O)cc2)nc1 [pioglitazone] (first compound 0.01 µM, partner dose 2 µM)",251
12,"O=C(CCCCCCC(=O)Nc1ccccc1)NO [vorinostat] + COc1cc(N2CCC(N3CCN(C)CC3)CC2)ccc1Nc1ncc(Cl)c(Nc2ccccc2S(=O)(=O)C(C)C)n1 [NVP-TAE684] (first compound 0.08 µM, partner dose 0.08 µM)",36.8
13,"O=C(Nc1cccc(Cl)c1)Nc1ncc(CCNc2ncnc3ccsc23)s1 + COC(=O)c1sccc1S(=O)(=O)Nc1ccc(Nc2ccccc2)cc1OC [GSK0660] (first compound 0.0008 µM, partner dose 1 µM)",50.8
14,"C=CCn1c(=O)c2cnc(Nc3ccc(N4CCN(C)CC4)cc3)nc2n1-c1cccc(C(C)(C)O)n1 + CC(C)CCN1c2nc(Nc3cc(F)c(O)c(F)c3)ncc2N(C)C(=O)C1C [BID1870] (first compound 0.02 µM, partner dose 0.2 µM)",57.5
15,"CO[C@@H]1[C@H](N(C)C(=O)c2ccccc2)C[C@H]2O[C@]1(C)n1c3ccccc3c3c4c(c5c6ccccc6n2c5c31)C(=O)NC4 [Midostaurin] + O=S(=O)(c1ccccc1)N(CC(F)(F)F)c1ccc(C(O)(C(F)(F)F)C(F)(F)F)cc1 [T0901317] (first compound 0.08 µM, partner dose 1.4 µM)",247
16,"Nc1cccc2c1CN(C1CCC(=O)NC1=O)C2=O (configuration not stated) [lenalidomide] + COC(=O)c1sccc1S(=O)(=O)Nc1ccc(Nc2ccccc2)cc1OC [GSK0660] (first compound 1 µM, partner dose 1 µM)",26.1

# 2 records drawn at random from the list so far:
row,SMILES,cleaved PARP positive nuclei fraction [%]
14,"C=CCn1c(=O)c2cnc(Nc3ccc(N4CCN(C)CC4)cc3)nc2n1-c1cccc(C(C)(C)O)n1 + CC(C)CCN1c2nc(Nc3cc(F)c(O)c(F)c3)ncc2N(C)C(=O)C1C [BID1870] (first compound 0.02 µM, partner dose 0.2 µM)",57.5
2,"O=C(Nc1cccc(Cl)c1)Nc1ncc(CCNc2ncnc3ccsc23)s1 + COc1cc(N2CCC(N3CCN(C)CC3)CC2)ccc1Nc1ncc(Cl)c(Nc2ccccc2S(=O)(=O)C(C)C)n1 [NVP-TAE684] (first compound 0.0008 µM, partner dose 0.08 µM)",65.4

# Carrying on.

row,SMILES,cleaved PARP positive nuclei fraction [%]
1,"O=C(Nc1cccc(Cl)c1)Nc1ncc(CCNc2ncnc3ccsc23)s1 + CCc1ccc(CCOc2ccc(CC3SC(=O)NC3=O)cc2)nc1 [pioglitazone] (first compound 0.0008 µM, partner dose 2 µM)",49.6
2,"COCC[n+]1c2c(n(Cc3cnccn3)c1C)C(=O)c1ccccc1C2=O + O=c1cc(-c2cccc3c2Sc2ccccc2S3)oc(N2CCOCC2)c1 [KU55933] (first compound 0.0004 µM, partner dose 1 µM)",51.9
3,"Nc1cccc2c1CN(C1CCC(=O)NC1=O)C2=O (configuration not stated) [lenalidomide] + COc1ccc(-c2ccc3c(N4CCOCC4)nc(N4C[C@@H](C)O[C@@H](C)C4)nc3n2)cc1CO [KU0063794] (first compound 1 µM, partner dose 0.02 µM)",71.1
4,"NC(=O)Nc1cc(-c2cccc(F)c2)sc1C(=O)N[C@H]1CCCNC1 + Cn1cc(/C=C2\C(=O)Nc3cccnc32)c2ccccc21 [GW441756] (first compound 0.02 µM, partner dose 0.4 µM)",60.6
5,"COc1cc(Nc2ncc(F)c(Nc3ccc4c(n3)NC(=O)C(C)(C)O4)n2)cc(OC)c1OC [Tamatinib] + COc1cc(N2CCC(N3CCN(C)CC3)CC2)ccc1Nc1ncc(Cl)c(Nc2ccccc2S(=O)(=O)C(C)C)n1 [NVP-TAE684] (first compound 0.4 µM, partner dose 0.08 µM)",36.3
6,"NC(=O)Nc1cc(-c2cccc(F)c2)sc1C(=O)N[C@H]1CCCNC1 + CCN(CC)CCCCNc1ncc2cc(-c3cc(OC)cc(OC)c3)c(NC(=O)NC(C)(C)C)nc2n1 [PD173074] (first compound 0.02 µM, partner dose 0.1 µM)",29.4
7,"O=C(CCCCCCC(=O)Nc1ccccc1)NO [vorinostat] + CCCCCCCCCCCC1=C(O)C(=O)C=C(O)C1=O [Embelin] (first compound 0.08 µM, partner dose 1.2 µM)",59.1
8,"O=C(Nc1cccc(Cl)c1)Nc1ncc(CCNc2ncnc3ccsc23)s1 + COc1ccc(-c2ccc3c(N4CCOCC4)nc(N4C[C@@H](C)O[C@@H](C)C4)nc3n2)cc1CO [KU0063794] (first compound 0.0008 µM, partner dose 0.02 µM)",41.4
9,"Cc1nc(Nc2ncc(C(=O)Nc3c(C)cccc3Cl)s2)cc(N2CCN(CCO)CC2)n1 [dasatanib] + CCN(CC)CCCCNc1ncc2cc(-c3cc(OC)cc(OC)c3)c(NC(=O)NC(C)(C)C)nc2n1 [PD173074] (first compound 0.004 µM, partner dose 0.1 µM)",37.1
10,"CC1(C)NC(=O)N(c2ccc([N+](=O)[O-])c(C(F)(F)F)c2)C1=O [nilutamide] + COc1ccc(COc2ccc(Cc3cnc(N)nc3N)cc2OC)cc1 [GW2580] (first compound 1 µM, partner dose 1 µM)",57.8
11,"COCC[n+]1c2c(n(Cc3cnccn3)c1C)C(=O)c1ccccc1C2=O + CCc1ccc(CCOc2ccc(CC3SC(=O)NC3=O)cc2)nc1 [pioglitazone] (first compound 0.0004 µM, partner dose 2 µM)",33.3
12,"O=C(CCCCCCC(=O)Nc1ccccc1)NO [vorinostat] + COc1ccc(-c2ccc3c(N4CCOCC4)nc(N4C[C@@H](C)O[C@@H](C)C4)nc3n2)cc1CO [KU0063794] (first compound 0.08 µM, partner dose 0.02 µM)",51.5
13,"COc1cc(Nc2ncc(F)c(Nc3ccc4c(n3)NC(=O)C(C)(C)O4)n2)cc(OC)c1OC [Tamatinib] + O=S(=O)(c1ccccc1)N(CC(F)(F)F)c1ccc(C(O)(C(F)(F)F)C(F)(F)F)cc1 [T0901317] (first compound 0.4 µM, partner dose 1.4 µM)",70
14,"NC(=O)Nc1cc(-c2cccc(F)c2)sc1C(=O)N[C@H]1CCCNC1 + O=S(=O)(c1ccccc1)N(CC(F)(F)F)c1ccc(C(O)(C(F)(F)F)C(F)(F)F)cc1 [T0901317] (first compound 0.02 µM, partner dose 1.4 µM)",50.2
15,"Cn1nnc2c(C(N)=O)ncn2c1=O [temozolomide] + COc1ccc(-c2ccc3c(N4CCOCC4)nc(N4C[C@@H](C)O[C@@H](C)C4)nc3n2)cc1CO [KU0063794] (first compound 2 µM, partner dose 0.02 µM)",41.9
16,"Nc1cccc2c1CN(C1CCC(=O)NC1=O)C2=O (configuration not stated) [lenalidomide] + c1cc(-c2cnn3cc(-c4ccc(OCCN5CCCCC5)cc4)cnc23)ccn1 [Dorsomorphin] (first compound 1 µM, partner dose 0.4 µM)",57.9
